Reference: article PMC7979705
Results are given in words; binding and its absence hold for the method and conditions named. Binding seen in cells or lysates may run through a third protein. A yes stands for co-enrichment or nearness to the bait. Other partners may have been found.

Sequences of proteins named here, by UniProt entry; tags and fusion partners are left off. A change or cut given only in a name is not applied to a line headed by its entry.
UniProt Q09472: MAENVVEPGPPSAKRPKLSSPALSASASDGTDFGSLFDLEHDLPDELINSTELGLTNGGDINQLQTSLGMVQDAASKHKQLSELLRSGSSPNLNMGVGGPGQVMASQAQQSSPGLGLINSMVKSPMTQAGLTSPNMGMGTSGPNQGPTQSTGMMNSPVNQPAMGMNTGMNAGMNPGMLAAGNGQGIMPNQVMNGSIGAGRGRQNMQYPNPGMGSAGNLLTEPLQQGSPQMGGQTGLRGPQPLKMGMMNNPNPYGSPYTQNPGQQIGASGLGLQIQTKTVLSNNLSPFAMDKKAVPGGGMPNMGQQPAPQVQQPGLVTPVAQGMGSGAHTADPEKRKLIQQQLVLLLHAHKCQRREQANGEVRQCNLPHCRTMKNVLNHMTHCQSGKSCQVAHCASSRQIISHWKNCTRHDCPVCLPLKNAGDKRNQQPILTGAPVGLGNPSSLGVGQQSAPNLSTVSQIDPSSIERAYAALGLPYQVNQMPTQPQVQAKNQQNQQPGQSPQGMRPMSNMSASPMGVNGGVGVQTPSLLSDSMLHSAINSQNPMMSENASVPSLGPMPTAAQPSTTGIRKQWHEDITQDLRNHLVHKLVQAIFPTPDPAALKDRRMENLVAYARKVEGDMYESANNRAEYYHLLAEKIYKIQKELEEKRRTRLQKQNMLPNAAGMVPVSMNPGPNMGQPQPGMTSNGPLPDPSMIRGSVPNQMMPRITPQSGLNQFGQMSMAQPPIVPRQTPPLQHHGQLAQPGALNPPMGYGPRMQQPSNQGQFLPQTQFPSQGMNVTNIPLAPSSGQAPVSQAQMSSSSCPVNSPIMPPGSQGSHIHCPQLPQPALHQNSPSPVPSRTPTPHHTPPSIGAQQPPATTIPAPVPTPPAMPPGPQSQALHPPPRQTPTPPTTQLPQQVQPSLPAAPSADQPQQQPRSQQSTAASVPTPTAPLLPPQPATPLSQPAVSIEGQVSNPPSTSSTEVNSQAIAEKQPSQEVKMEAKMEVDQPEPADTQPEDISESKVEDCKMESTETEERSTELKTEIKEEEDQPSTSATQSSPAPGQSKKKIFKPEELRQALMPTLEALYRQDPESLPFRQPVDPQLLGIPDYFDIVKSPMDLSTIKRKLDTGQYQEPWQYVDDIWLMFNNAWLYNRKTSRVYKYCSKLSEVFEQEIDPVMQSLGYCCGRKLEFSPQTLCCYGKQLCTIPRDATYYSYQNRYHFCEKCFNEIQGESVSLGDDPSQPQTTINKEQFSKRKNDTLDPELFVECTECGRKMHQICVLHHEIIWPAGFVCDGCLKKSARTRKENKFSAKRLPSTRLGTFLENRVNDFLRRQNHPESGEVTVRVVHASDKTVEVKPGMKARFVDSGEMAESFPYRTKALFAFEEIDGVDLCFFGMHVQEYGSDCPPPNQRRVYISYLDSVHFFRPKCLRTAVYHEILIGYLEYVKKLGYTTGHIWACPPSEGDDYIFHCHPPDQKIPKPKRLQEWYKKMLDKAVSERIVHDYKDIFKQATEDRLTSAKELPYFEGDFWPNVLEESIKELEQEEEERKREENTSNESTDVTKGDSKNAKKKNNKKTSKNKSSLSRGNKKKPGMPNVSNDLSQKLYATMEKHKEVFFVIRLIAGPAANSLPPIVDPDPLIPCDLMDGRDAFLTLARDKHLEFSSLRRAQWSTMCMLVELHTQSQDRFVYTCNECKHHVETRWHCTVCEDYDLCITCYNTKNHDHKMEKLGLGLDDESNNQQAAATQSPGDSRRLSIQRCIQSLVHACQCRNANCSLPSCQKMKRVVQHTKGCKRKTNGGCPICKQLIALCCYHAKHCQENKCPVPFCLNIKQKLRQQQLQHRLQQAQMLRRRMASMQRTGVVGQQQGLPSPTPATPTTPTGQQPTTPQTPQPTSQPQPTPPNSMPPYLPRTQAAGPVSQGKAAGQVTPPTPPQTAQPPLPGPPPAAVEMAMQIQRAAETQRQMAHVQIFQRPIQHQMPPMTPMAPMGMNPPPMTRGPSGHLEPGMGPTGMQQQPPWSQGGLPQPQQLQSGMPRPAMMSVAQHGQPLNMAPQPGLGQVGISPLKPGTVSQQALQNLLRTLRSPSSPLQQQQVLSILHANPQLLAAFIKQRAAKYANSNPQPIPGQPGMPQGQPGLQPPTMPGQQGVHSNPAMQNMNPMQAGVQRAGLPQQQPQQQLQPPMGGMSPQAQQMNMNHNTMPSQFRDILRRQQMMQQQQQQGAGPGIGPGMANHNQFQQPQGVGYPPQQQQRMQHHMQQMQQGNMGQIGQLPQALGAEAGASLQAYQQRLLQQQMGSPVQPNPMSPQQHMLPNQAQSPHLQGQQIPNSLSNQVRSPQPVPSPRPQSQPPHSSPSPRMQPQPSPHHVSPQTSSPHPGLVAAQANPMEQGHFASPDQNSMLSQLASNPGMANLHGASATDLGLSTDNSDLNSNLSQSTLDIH

Molecular target: p300 (endogenous) (human (endogenous in T47D and MCF7)) (UniProt Q09472)
Experiment: affinity purification with mass spectrometry; MCF7 and T47D cell lysates (TNE lysis buffer) purified with anti-p300 antibody or normal IgG overnight at 4 °C; SDS-PAGE, silver staining, bands analysed by LC-MS/MS

- binding: binds
B1: E74-like ETS transcription factor 5 (ELF5), endogenous (protein, UniProt Q9UKW6 1-265)
chain: MPSLPHSHRVMLDSVTHSTFLPNASFCDPLMSWTDLFSNEEYYPAFEHQTACDSYWTSVHPEYWTKRHVWEWLQFCCDQYKLDTNCISFCNFNISGLQLCSMTQEEFVEAAGLCGEYLYFILQNIRTQGYSFFNDAEESKATIKDYADSNCLKTSGIKSQDCHSHSRTSLQSSHLWEFVRDLLLSPEENCGILEWEDREQGIFRVVKSEALAKMWGQRKKNDRMTYEKLSRALRYYYKTGILERVDRRLVYKFGKNAHGWQEDKL
